Test results as given in article PMC7588011, “Engineering Stem Cell Factor Ligands with Different c-Kit Agonistic Potencies” (Molecules, 2020).
Changes are numbered by the printed parent chain. Names may count otherwise. These are yes or no findings as the source states them, for the method shown. Some results given as binding are weak or reduced against the parent protein; the word gives no strength.

Assays:
[1] = target: wild-type stem cell factor, soluble, non-glycosylated (UniProt P21583); assay: dynamic light scattering; purified proteins in PBS, 0.3-0.5 mg/mL, 25 °C; hydrodynamic radius; monomer to dimer; both purified
[2] = target: yeast-surface displayed SCFWT (UniProt P21583); assay: flow cytometry on cells; homo-dimerization: purified soluble SCF protein (62.5-500 nM) on yeast displaying the same SCF protein, 1% PBSA, 2 h, 4 °C; detected with APC anti-Flag; normalized to SCFWT at 500 nM; only the binder purified
SCF_(M,K91E), soluble = SCF_(M,K91E), soluble (UniProt P21583); assay: dynamic light scattering; purified proteins in PBS, 0.3-0.5 mg/mL, 25 °C; hydrodynamic radius; monomer to dimer; both purified
[3] = target: SCF_(M,K91E,L98R), soluble (UniProt P21583); assay: as above
[4] = target: yeast-surface displayed SCF_(M,K91E,L98R) (UniProt P21583); assay: flow cytometry on cells; homo-dimerization: purified soluble SCF protein (62.5-500 nM) on yeast displaying the same SCF protein, 1% PBSA, 2 h, 4 °C; detected with APC anti-Flag; normalized to SCFWT at 500 nM; only the binder purified

wild-type stem cell factor, soluble, non-glycosylated (from UniProt P21583 26-214) (ligand)
binding [1]: binds | binding [2]: binds

B1: SCF_(M,K91E), soluble (ligand, UniProt P21583 26-214, looked up)
chain: EGICRNRVTNNVKDVTKLVANLPKDYMITLKYVPGMDVLPSHCWISEMLVQLSDSLTDLLDKLSNISEGLSNYSIIDKLVNIVDDLVECVEENSSKDLKKSFKSPEPRLFTPEEFFRIFNRSIDAFKDFVVASETSDCVVSSTLSPEKDSRVSVTKPFMLPPVAASSLRNDSSSSNRKAKNPPGDSSLH
notes: stem cell factor (SCF), SCFM (V49L, F63L) with K91E, selected from the first-generation yeast display library; source: purified in non-glycosylated form (production described in the Supplementary Materials)
binding (SCF_(M,K91E), soluble): no binding (tested: 0.3–0.5 mg/mL)

B2: SCF_(M,K91E,L98R), soluble (ligand, UniProt P21583 26-214, looked up)
chain: B1 chain with L98R
notes: stem cell factor (SCF), SCFM (V49L, F63L) with K91E and L98R, selected from the second-generation yeast display library; also called SCF_(K91E,L98R); source: purified in non-glycosylated form (production described in the Supplementary Materials)
binding [3]: binds | binding [4]: binds
